Assay results taken from article PMC11042255.
These are yes or no findings as the source states them, for the method shown. In cells and extracts the contact can be indirect. These calls come from enrichment with a bait or labelling near it, and not all partners need be listed.

Protein sequences, listed by entry. Tags and fused reporters are not part of them. Lines headed by an entry give the natural chain unless they say otherwise; changes in a name come on top.
UniProt Q8R4B8: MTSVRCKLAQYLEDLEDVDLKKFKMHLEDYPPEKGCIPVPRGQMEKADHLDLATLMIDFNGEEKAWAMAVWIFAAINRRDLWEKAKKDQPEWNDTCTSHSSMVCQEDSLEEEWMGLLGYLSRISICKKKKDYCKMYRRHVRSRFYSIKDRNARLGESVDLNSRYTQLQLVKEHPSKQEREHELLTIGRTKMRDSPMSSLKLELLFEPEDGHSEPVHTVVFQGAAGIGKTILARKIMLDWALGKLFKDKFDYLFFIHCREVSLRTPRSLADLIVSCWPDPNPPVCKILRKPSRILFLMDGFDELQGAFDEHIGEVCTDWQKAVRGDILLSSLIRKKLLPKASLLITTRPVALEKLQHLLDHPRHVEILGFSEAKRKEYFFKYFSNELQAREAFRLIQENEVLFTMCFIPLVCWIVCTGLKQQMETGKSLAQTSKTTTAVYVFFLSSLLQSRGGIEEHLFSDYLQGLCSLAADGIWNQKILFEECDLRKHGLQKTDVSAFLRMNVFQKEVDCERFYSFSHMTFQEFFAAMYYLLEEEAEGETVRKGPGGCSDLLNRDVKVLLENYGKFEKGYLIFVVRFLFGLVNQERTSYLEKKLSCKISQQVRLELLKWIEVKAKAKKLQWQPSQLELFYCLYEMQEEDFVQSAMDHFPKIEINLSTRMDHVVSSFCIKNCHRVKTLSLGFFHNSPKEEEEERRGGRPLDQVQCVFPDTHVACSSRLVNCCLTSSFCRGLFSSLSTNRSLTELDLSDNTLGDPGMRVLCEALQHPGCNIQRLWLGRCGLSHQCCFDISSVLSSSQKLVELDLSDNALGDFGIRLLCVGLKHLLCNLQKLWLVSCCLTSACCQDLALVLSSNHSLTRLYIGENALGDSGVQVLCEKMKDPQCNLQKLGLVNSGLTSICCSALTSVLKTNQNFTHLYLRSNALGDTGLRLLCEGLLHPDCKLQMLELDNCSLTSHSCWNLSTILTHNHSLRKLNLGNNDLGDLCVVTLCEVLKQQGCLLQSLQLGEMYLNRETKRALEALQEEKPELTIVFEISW
UniProt P63330: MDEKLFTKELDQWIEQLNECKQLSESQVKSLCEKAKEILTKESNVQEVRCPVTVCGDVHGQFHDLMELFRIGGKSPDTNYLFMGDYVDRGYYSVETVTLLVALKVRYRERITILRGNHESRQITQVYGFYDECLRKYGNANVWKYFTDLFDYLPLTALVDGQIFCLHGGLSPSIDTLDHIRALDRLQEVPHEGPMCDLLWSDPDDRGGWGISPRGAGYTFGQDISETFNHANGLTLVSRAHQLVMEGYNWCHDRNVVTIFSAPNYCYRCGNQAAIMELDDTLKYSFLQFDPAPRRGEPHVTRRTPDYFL
UniProt Q8VCF0: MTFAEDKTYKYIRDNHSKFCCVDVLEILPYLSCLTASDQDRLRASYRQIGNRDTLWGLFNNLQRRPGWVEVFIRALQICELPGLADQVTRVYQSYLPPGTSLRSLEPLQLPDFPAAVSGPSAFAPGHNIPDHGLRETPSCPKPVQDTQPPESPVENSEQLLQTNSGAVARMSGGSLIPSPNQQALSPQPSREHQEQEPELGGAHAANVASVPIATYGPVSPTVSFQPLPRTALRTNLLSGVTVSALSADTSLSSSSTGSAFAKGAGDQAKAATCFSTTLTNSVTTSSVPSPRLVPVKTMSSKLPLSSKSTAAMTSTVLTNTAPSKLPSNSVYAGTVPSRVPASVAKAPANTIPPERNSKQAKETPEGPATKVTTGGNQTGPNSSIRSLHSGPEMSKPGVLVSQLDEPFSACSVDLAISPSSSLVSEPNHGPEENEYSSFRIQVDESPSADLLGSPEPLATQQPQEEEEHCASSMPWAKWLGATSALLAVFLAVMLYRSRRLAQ
UniProt P46737: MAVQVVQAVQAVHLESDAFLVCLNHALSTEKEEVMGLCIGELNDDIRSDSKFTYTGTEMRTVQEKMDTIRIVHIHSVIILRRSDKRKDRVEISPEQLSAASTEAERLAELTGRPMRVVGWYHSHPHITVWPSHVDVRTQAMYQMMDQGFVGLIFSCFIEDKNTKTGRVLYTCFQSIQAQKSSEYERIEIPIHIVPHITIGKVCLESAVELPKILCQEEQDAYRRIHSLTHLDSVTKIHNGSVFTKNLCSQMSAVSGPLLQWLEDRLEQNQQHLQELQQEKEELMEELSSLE

The substances below were run against Nlrp3-APEX2 (Nlrp3-APEX-FLAG-IRES-GFP expression construct) (mouse) (UniProt Q8R4B8) (assay: proximity labelling; APEX2 proximity biotinylation in Nlrp3-/- iBMDMs expressing Nlrp3-APEX2, with APEX2-P4C as background control; with or without LPS (1 μg/mL, 4 h), then nigericin (20 μM, 20 min) or CL097 (75 μg/mL, 25 min); biotin phenol (500 μM, 45 min), H2O2 (1 min); TMT-based quantitative proteomics of the biotinylated proteins).

| Substance | binding |
| --- | --- |
| PP2A (from UniProt P63330) (enzyme) | binds |
| Mavs (from UniProt Q8VCF0 1-503) | binds |
| Brcc3 (from UniProt P46737 1-291) (enzyme) | binds |
